The results in this text go back to article doi:10.1101/2024.10.10.617546.

Protein sequences, listed by entry. Tags and fused reporters are not part of them.
UniProt Q3UHK6: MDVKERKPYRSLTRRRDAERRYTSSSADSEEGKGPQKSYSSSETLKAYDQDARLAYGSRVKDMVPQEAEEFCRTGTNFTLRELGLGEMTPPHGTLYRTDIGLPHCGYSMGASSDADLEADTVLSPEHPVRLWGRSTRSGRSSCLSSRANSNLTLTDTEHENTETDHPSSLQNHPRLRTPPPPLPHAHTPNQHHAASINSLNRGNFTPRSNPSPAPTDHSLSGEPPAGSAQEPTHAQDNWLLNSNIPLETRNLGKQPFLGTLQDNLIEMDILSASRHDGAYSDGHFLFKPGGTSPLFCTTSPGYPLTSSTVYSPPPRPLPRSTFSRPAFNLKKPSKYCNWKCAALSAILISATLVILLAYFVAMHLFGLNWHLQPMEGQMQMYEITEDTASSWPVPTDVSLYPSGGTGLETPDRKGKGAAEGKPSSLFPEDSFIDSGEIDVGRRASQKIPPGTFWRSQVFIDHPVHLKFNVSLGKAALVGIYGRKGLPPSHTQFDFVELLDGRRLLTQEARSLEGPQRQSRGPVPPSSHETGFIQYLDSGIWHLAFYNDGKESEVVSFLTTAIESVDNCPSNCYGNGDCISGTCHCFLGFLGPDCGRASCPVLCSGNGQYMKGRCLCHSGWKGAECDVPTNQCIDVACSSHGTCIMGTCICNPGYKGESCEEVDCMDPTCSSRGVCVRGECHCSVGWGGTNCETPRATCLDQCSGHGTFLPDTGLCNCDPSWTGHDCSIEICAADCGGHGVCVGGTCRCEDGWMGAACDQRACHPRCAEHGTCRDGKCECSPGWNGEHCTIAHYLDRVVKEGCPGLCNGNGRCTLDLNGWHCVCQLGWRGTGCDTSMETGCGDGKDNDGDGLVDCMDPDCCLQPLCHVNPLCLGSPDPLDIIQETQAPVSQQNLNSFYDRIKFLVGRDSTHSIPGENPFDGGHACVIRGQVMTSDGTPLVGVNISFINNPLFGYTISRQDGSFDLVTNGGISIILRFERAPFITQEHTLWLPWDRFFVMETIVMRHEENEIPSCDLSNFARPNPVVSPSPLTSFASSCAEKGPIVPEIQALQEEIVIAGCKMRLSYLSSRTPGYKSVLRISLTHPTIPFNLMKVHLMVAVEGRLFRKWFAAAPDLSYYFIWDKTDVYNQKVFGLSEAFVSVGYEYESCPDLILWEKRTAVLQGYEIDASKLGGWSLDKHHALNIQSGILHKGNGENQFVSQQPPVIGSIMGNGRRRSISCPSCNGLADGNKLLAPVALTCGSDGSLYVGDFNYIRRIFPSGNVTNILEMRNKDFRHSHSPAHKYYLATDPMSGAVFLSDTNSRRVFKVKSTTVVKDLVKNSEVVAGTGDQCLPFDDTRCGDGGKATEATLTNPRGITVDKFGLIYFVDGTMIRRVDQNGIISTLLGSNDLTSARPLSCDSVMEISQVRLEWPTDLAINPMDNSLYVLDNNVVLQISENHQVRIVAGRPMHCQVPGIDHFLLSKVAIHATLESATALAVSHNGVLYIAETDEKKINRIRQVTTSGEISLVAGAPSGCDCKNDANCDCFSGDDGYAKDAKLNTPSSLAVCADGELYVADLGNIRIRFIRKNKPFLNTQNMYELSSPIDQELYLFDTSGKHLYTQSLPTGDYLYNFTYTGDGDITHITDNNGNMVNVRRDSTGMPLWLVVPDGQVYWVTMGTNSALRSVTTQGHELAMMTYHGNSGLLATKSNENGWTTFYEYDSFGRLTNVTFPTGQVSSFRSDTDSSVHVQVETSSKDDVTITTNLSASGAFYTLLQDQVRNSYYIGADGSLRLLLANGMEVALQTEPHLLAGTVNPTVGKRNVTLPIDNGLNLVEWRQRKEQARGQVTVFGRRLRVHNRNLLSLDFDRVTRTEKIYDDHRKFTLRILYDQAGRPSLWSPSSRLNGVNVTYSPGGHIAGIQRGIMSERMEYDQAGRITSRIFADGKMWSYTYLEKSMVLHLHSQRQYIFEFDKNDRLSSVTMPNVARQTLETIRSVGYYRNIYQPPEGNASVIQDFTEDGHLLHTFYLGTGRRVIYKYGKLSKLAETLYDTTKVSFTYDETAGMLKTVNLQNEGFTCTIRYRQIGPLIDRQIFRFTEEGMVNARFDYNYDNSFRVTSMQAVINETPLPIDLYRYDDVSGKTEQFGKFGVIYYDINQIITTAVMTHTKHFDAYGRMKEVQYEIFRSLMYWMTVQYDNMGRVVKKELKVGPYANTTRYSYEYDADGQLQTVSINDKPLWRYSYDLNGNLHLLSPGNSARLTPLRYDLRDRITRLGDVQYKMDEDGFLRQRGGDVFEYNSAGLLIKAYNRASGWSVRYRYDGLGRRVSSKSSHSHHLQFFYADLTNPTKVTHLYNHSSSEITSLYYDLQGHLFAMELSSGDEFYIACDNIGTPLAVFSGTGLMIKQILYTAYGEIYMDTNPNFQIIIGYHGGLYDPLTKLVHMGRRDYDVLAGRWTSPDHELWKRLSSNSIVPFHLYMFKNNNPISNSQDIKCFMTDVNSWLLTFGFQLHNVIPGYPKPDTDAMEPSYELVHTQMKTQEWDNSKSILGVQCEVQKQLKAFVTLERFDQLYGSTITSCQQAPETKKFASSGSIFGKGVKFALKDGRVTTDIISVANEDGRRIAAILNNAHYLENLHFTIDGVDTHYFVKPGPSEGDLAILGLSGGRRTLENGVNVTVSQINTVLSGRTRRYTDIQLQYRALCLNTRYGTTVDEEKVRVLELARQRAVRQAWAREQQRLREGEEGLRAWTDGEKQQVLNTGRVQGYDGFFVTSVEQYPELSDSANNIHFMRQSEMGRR
UniProt Q8CD54: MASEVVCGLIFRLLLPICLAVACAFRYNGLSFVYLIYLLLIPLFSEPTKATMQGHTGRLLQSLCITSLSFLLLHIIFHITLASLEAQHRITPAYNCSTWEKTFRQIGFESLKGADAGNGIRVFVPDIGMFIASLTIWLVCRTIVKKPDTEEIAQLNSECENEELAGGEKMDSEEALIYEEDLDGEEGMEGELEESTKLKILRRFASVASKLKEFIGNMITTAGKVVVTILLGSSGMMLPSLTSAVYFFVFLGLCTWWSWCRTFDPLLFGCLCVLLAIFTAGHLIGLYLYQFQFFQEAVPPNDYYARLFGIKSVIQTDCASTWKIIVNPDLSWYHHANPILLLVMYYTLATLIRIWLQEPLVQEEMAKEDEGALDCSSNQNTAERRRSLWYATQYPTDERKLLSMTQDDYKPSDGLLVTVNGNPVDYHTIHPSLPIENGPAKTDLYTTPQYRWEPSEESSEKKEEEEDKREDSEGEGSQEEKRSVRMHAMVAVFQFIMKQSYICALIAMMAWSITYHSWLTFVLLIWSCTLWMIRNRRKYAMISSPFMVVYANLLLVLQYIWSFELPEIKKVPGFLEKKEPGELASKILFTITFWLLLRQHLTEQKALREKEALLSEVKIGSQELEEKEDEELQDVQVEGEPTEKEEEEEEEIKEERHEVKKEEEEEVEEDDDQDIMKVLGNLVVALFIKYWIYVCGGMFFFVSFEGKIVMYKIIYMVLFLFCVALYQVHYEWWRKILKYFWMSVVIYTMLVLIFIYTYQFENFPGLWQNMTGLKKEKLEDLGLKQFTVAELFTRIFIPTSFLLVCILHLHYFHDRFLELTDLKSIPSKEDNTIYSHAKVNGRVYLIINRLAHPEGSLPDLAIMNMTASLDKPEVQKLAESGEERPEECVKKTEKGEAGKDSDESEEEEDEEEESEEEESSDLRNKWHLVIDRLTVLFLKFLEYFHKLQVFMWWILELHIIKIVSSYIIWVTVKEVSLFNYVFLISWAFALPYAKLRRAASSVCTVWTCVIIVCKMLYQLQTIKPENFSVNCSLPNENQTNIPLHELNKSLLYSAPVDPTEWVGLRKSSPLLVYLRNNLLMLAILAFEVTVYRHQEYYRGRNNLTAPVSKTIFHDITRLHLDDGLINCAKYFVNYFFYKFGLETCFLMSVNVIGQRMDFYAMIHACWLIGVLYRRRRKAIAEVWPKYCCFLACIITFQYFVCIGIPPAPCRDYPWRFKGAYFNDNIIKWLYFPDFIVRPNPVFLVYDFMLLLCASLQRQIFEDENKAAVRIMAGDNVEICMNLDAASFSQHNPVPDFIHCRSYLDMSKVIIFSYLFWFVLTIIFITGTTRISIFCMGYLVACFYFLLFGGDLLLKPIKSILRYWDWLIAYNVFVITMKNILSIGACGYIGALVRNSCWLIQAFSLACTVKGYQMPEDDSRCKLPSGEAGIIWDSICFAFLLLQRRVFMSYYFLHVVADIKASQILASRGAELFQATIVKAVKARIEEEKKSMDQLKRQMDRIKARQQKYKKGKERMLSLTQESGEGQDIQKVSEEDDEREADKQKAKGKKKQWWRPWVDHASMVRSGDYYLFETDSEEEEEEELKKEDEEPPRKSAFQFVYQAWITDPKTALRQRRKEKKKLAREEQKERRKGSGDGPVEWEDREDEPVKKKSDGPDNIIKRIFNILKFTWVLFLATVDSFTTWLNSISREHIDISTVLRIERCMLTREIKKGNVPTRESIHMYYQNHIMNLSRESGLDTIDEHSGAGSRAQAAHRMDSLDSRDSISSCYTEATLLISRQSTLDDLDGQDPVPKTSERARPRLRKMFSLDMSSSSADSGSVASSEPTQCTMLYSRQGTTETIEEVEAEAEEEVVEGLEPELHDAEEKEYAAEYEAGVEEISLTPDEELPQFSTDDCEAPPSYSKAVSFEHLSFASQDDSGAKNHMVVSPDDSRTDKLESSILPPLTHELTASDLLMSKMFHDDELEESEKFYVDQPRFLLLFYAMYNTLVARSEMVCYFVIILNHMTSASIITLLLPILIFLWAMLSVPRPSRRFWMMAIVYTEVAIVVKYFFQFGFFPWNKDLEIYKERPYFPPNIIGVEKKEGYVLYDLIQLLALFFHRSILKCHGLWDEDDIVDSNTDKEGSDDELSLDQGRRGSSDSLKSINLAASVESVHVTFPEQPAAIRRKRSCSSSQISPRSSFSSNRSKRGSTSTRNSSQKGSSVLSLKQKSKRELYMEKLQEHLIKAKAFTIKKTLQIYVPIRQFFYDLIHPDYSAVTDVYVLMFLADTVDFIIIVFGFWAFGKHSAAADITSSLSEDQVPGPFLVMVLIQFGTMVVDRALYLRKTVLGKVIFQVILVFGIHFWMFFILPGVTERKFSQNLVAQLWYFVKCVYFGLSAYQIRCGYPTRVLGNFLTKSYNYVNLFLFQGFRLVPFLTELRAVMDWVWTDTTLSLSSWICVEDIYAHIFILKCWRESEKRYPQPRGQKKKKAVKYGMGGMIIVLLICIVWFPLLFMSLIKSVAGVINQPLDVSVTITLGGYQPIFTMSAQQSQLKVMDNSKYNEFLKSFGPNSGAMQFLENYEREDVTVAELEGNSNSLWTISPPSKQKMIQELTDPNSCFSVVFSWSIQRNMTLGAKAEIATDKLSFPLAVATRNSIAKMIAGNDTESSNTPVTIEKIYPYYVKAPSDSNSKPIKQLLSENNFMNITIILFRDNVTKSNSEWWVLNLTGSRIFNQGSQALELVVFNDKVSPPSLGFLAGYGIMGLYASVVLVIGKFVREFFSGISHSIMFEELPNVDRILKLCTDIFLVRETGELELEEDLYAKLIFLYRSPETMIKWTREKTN

For the assay, the target named is TENM4-ALFA (full length Teneurin-4 with a C-terminal ALFA-tag) (mouse) (UniProt Q3UHK6). As to the kind of experiment: co-IP.

These are yes or no findings as the source states them, for the method shown. In cells and extracts the contact can be indirect. Some binding calls cover weakened binding; strength is not graded here.

Take PIEZO2 (from UniProt Q8CD54 1-2822): the binding entry is reported as “no binding”.

B1: ELKIN1 (protein, UniProt Q8BXN9 22-555)
chain: FPLSFLGAGPAPVFAADRSKWHIPMPSGKGYFNFGKILFRNTTILLKFDGEPCDQSLNITWFLKSADCYNEIYNFKADEIESYLENLKGKKGLSGRYQTSSRLFQNCSELYKAQSFSGDFTHRLPLLGEKQEAKENATNVTFTGDKIAMHEPLQTWQDAPYIFIVHVGISSSKESPKENALSNLFTMTVEVKGPYEYLTLEDYPLMIFFMVMCIVYVLFGVLWLAWSACYWRDLLRIQFWIGAVIFLGMFEKAVFYAEFQNIRYKGESVQNALVLAELLSAVKRSLARTLVIIVSLGYGIVKPRLGVTLHKVVVAGALYLLFSGMEGVLRVTGAQTDLASLAFIPLAFLDTALCWWIFISLTQTMKLLKLRRNIVKLSLYRHFTNTLILAVAASIVFIIWTTMKFRIVTCQSDWRELWVDDAIWRLLFSMILFVIMILWRPSANNQRFAFSPLSEEDEEDEQKEPMLKESFEGMKMRSTKQEPNGTSKVNKAQEDDLKWVEENVPSSVTDVALPALLDSDEERMITHFERSKME
In the case of B1, the binding entry is “binds”.
